These are yes or no findings as the source states them, for the method shown. For some of these results: Binding can be weak; no strength is given. Tags and fused reporters may be left off the sequences shown.
Legend:
Experiment in all cases: pull-down; GST pull-down: 20 μg GST-tagged protein and increasing amounts of untagged partner with glutathione Sepharose, 2 h at 4°C, 20 mM Tris pH 7.5, 150 mM NaCl, 5 mM DTT, 0.1% Tween-20; five washes; SDS–PAGE, Coomassie; both purified
[1] = molecular target: T1, GST-tagged full-length Elp1 (S. cerevisiae) (UniProt Q06706)
T1 sequence: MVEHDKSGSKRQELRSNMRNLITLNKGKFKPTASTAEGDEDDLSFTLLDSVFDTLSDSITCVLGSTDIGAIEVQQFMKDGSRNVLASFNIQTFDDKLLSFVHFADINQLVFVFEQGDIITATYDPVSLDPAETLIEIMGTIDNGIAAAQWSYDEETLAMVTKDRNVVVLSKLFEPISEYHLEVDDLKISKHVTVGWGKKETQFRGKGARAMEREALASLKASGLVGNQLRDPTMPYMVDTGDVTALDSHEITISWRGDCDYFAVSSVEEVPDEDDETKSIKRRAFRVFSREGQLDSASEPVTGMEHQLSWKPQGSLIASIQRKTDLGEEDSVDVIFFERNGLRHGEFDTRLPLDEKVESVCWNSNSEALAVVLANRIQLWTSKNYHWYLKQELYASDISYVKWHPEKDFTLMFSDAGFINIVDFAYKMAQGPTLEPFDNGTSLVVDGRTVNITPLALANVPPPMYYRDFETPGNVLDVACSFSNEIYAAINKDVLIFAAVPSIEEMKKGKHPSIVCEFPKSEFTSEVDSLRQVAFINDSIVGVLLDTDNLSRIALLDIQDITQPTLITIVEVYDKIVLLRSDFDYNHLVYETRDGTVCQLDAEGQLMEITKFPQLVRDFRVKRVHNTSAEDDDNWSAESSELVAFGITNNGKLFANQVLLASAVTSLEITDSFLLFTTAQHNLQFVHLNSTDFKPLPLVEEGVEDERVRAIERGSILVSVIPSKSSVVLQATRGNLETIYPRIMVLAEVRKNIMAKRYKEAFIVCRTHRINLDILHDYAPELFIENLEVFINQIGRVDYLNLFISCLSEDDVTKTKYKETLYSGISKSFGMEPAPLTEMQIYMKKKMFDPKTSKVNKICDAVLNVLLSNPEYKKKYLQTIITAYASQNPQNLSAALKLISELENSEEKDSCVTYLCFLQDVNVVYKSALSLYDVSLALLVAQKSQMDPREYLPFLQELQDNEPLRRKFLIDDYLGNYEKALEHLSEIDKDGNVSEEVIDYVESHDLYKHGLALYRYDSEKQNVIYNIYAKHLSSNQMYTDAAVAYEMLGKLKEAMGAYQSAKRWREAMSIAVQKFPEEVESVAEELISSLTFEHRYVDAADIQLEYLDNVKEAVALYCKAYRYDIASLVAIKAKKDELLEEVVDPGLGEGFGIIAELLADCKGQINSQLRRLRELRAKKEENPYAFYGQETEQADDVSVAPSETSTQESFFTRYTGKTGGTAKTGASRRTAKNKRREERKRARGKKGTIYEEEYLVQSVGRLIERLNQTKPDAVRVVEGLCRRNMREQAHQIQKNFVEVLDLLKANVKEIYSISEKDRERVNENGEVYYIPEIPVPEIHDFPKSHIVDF

[2] = molecular target: T2, GST-tagged Elp3 SAM domain (aa72–389) (S. cerevisiae) (UniProt Q02908)
T2 sequence: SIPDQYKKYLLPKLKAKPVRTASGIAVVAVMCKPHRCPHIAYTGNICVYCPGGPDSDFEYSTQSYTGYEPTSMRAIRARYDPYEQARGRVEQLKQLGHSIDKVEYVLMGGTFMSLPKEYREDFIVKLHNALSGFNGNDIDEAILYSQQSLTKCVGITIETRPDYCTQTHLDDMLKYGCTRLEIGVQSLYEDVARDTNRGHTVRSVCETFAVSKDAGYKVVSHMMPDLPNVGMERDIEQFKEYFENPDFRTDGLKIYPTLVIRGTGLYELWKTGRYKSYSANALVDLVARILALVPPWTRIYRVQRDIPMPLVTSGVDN

[3] = molecular target: T3, GST-tagged Elp3 KAT domain (aa348–557) (S. cerevisiae) (UniProt Q02908)
T3 sequence: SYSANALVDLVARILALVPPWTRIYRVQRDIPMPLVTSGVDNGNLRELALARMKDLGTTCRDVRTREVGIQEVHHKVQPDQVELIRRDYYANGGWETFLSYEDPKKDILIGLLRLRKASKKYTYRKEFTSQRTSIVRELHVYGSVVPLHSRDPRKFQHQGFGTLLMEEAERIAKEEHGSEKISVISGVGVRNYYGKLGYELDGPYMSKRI

[4] = molecular target: T4, GST-tagged C-terminally truncated Elp1 (Elp1 1–734) (S. cerevisiae) (UniProt Q06706)
T4 sequence: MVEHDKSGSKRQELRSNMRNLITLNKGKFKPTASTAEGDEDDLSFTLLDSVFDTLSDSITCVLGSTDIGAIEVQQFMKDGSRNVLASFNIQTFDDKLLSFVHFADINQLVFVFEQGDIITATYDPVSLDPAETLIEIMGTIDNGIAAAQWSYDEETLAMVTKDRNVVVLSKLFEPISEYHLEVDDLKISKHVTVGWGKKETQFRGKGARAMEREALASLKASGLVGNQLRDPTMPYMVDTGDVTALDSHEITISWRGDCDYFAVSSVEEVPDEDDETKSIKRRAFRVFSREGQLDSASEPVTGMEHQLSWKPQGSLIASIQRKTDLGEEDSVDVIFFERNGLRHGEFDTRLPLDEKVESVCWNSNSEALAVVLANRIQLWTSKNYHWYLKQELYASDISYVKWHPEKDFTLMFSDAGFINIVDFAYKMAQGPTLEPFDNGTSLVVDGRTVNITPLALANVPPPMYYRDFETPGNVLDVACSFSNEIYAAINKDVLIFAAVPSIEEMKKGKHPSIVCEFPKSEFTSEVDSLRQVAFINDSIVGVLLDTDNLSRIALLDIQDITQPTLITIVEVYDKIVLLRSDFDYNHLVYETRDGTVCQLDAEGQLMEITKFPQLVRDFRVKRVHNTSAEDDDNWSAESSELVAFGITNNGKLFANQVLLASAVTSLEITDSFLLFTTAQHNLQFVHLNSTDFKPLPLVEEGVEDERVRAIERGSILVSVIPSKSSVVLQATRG

Q: Which binding [1] does the source give for “Elp456 lacking the Elp4 loop region (aa168–233) (S. cerevisiae) (complex)” here?
A: The binding was “binds”.

Q: Which binding [2] does the source give for Elp45(1–270)6 (S. cerevisiae) (complex) here?
A: Its binding is “binds”.

Q: What about the binding [3] of the same substance?
A: Its binding is “no binding”.

Q: How did the binding [4] turn out when “Elp4 with a deletion of the short conserved stretch at the N-terminus (S. cerevisiae) (domain or fragment)” was run?
A: The binding was “no binding”.
